PubChem BioAssay AID686943 | Drosophila RNAi Screening Center | 2013

- Assay: 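Knockdowns that increase or decrease active ERK after insulin receptor stimulation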 (primary screen)
- Cell system: Drosophila S2R+ haemocyte-like cells expressing YFP-tagged ERK (Rolled)
- Reagent: long dsRNA against Drosophila genes
- Challenge: insulin stimulation versus unstimulated cells; dose and duration not given
- Measurement: 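Per-plate z-scores of phospho-ERK immunostaining normalised to YFP-tagged ERK, measured with and without insulin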
- Direction: replicate 1, z-score of dpERK with insulin: higher = more active ERK per ERK-YFP after insulin
In all, the deposit lists about 23,000 reagents; below is a random part of those that have a named target and a result. 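Extra replicates exist only for a retested subset of genes; insulin dose and duration not given; both raised and lowered dpERK matter.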 Not all columns of the deposit are shown. Not stated in the record: the amount of reagent, the time to read-out.

What is on record for CG32512 [SID104200311]?
replicate 1, z-score of dpERK with insulin: 0.78

With CG32512 [SID104200343], how do the results read?
replicate 1, z-score of dpERK with insulin: 0.52

With CG32512 [SID104201163], how do the results read?
replicate 1, z-score of dpERK with insulin: -1.44

What is on record for Fic (Fic domain-containing protein) [SID104183039]?
replicate 1, z-score of dpERK with insulin: 0

What did the screen give for Pka-C2 (Protein kinase, cAMP-dependent, catalytic subunit 2) [SID104196582]?
replicate 1, z-score of dpERK with insulin: 0.5

How did the screen score CG42671 [SID104188885]?
replicate 1, z-score of dpERK with insulin: -3.07

With CG42671 [SID104190113], what does the deposit list?
replicate 1, z-score of dpERK with insulin: -0.46

What did the screen give for CG42369 [SID104183036]?
replicate 1, z-score of dpERK with insulin: -0.19

Which result is listed for CG34382 [SID104188791]?
replicate 1, z-score of dpERK with insulin: 0.62

How did the screen score CG34382 [SID104189958]?
replicate 1, z-score of dpERK with insulin: 0.63

For CG34382 [SID104189959], how do the results read?
replicate 1, z-score of dpERK with insulin: -0.46

What did the screen give for CG34305 [SID104191787]?
replicate 1, z-score of dpERK with insulin: -0.47

What did the screen give for CG42324 [SID104188223]?
replicate 1, z-score of dpERK with insulin: -1.71

For CG42324 [SID104188224], what was measured?
replicate 1, z-score of dpERK with insulin: 0.11

With PNPase (Polynucleotide phosphorylase) [SID104194096], what was measured?
replicate 1, z-score of dpERK with insulin: 0.05

What did the screen give for CG5498 [SID104191400]?
replicate 1, z-score of dpERK with insulin: 0.31

For CG14546 [SID104194682], what does the deposit list?
replicate 1, z-score of dpERK with insulin: 0.26

With CG13168 [SID104186087], what does the deposit list?
replicate 1, z-score of dpERK with insulin: 0.43

Which result is listed for CG4042 [SID104191543]?
replicate 1, z-score of dpERK with insulin: 0.28

With Dolk (Dolichol kinase) [SID104186935], what does the deposit list?
replicate 1, z-score of dpERK with insulin: 0.66

For CG9536 [SID104183046], what was measured?
replicate 1, z-score of dpERK with insulin: 0.01

For CG42807 [SID104186758], how do the results read?
replicate 1, z-score of dpERK with insulin: -0.03

For ci (cubitus interruptus) [SID104196964], what was measured?
replicate 1, z-score of dpERK with insulin: -0.11

For lncRNA:CR43314 (long non-coding RNA::CR43314) [SID104181008], how do the results read?
replicate 1, z-score of dpERK with insulin: 0.7

How did the screen score lncRNA:CR43314 (long non-coding RNA::CR43314) [SID104201128]?
replicate 1, z-score of dpERK with insulin: -0.57

Which result is listed for PK1-R (Pyrokinin 1 receptor) [SID104196369]?
replicate 1, z-score of dpERK with insulin: 0.82

For EloA (Elongin A) [SID104195901], how do the results read?
replicate 1, z-score of dpERK with insulin: 0.69

What is on record for CG32240 [SID104187885]?
replicate 1, z-score of dpERK with insulin: -0.3

With Atg17 (Autophagy-related 17) [SID104192013], what was measured?
replicate 1, z-score of dpERK with insulin: 0.36

What did the screen give for CG31016 [SID104201132]?
replicate 1, z-score of dpERK with insulin: 1.07

How did the screen score CG10809 [SID104189594]?
replicate 1, z-score of dpERK with insulin: -0.48
